Data from paper doi:10.1101/2020.08.27.268672 (bioRxiv, 2020).
Results are given in words; binding and its absence hold for the method and conditions named. In cells and extracts the contact can be indirect. A yes stands for co-enrichment or nearness to the bait. Other partners may have been found. No binding means not detected with the bait. Tags and fused reporters may be left off the sequences shown.

Biological target: T1, 6xHis-SUMO-DarB (Bacillus subtilis 168) (UniProt O31698)
T1 sequence: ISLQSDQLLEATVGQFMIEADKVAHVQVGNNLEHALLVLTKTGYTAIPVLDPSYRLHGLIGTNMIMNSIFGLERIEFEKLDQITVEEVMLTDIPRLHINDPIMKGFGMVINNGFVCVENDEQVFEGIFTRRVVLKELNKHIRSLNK
Experiment: affinity purification with mass spectrometry

binding: no binding
Substance: CcpC (endogenous)
